From the supplement of paper PMC7125110
± gives the standard error. Many of these values have a large error.

B1: glmS ribozyme (parent)
chain: AUAAAAGCGCCAGAACUACAGAAAUGUAGUUGACGAGGAGGAGGUUUAUCGAAUUUUCGGCGGAUGCCUCCAAA

Variants of: B1
Test: self-cleavage kobs at 160 uM GlcN6P; higher = faster cleavage; RNA array
Conditions: with glucosamine-6-phosphate
Summary of the method: (§1)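 Barcoded glmS ribozyme variants on sequenced MiSeq chips were transcribed in situ by E. coli RNA polymerase and tracked through a hybridised Cy3 probe at 37 °C. Glucosamine-6-phosphate (40 μM to 10 mM) in HEPES/KCl/Mg(OAc)2 buffer was flowed in, and tiles were imaged over ~14 h. Signals were normalised to baseline and to non-cleaving reference variants; per-tile medians were fit to one- or two-exponential decays to give kobs. kcat and KM came from weighted Michaelis–Menten fits across concentrations.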

| Variant | self-cleavage kobs at 160 uM GlcN6P |
| --- | --- |
| A15G U47G G60A C61U C68A | 5.19e-05 ± 3.2e-05 s⁻¹ |
| C11A U69A | 4.25e-05 ± 2.8e-05 s⁻¹ |
| A15C G66U | 1.79e-05 ± 1.3e-05 s⁻¹ |
| U31C U69G | 2.18e-05 ± 2e-05 s⁻¹ |
| C16A C68U | 1.79e-05 ± 1.3e-05 s⁻¹ |
| C11U G40U | 1.65e-05 ± 1.6e-05 s⁻¹ |
| G13A A39U | 1.93e-05 ± 1.8e-05 s⁻¹ |
| U65C U69G | 5.05e-05 ± 2.8e-05 s⁻¹ |
| C8U A12U G37U C61A A64U C67G | 5.32e-05 ± 2.8e-05 s⁻¹ |
| G51U C68A | 2.24e-05 ± 1.6e-05 s⁻¹ |
| A15G G51U C58G C71G | 2.83e-05 ± 1.9e-05 s⁻¹ |
| A12U C68A | 2.39e-05 ± 1.8e-05 s⁻¹ |
| C11A U30G U54G | 2.73e-05 ± 1.7e-05 s⁻¹ |
| A6U C71G | 1.88e-05 ± 1.3e-05 s⁻¹ |
| G13A C34G C50U C67G | 2.91e-05 ± 2.7e-05 s⁻¹ |
| A15C C58G C70A | 1.74e-05 ± 1.3e-05 s⁻¹ |
| G26U C67G | 5.12e-05 ± 2.9e-05 s⁻¹ |

Rewritten as tab-separated lines: part of the list above.
Variant	self-cleavage kobs at 160 uM GlcN6P
C11U G40U	1.65e-05 ± 1.6e-05 s⁻¹
G13A A39U	1.93e-05 ± 1.8e-05 s⁻¹
U65C U69G	5.05e-05 ± 2.8e-05 s⁻¹
C8U A12U G37U C61A A64U C67G	5.32e-05 ± 2.8e-05 s⁻¹

Some of the entries so far, with each value named.
C11A U69A
  self-cleavage kobs at 160 uM GlcN6P = 4.25e-05 ± 2.8e-05 s⁻¹
C11A U30G U54G
  self-cleavage kobs at 160 uM GlcN6P = 2.73e-05 ± 1.7e-05 s⁻¹
G26U C67G
  self-cleavage kobs at 160 uM GlcN6P = 5.12e-05 ± 2.9e-05 s⁻¹

Variants of: B1
Test: self-cleavage kobs at 10000 uM GlcN6P; higher = faster cleavage; RNA array
Conditions: with glucosamine-6-phosphate
Summary of the method: as §1

| Variant | self-cleavage kobs at 10000 uM GlcN6P |
| --- | --- |
| A15G U47G G60A C61U C68A | 3.83e-05 ± 2.3e-05 s⁻¹ |
| U57C C71A | 1.74e-05 ± 1.2e-05 s⁻¹ |
| C11A U69A | 2.16e-05 ± 1.9e-05 s⁻¹ |
| G29C A36U C50G | 3.41e-05 ± 2.3e-05 s⁻¹ |
| A12U C68A | 0.00211 ± 0.0014 s⁻¹ |
| C50G C58U | 2.05e-05 ± 1e-05 s⁻¹ |

Variants of: B1
Test: self-cleavage kobs at 640 uM GlcN6P; higher = faster cleavage; RNA array
Conditions: with glucosamine-6-phosphate
Summary of the method: as §1

| Variant | self-cleavage kobs at 640 uM GlcN6P |
| --- | --- |
| U57C C71A | 2.3e-05 ± 1.8e-05 s⁻¹ |
| U56G A64U C70U | 3.46e-05 ± 2.2e-05 s⁻¹ |
| G35C U49G C50G C70G | 5.15e-05 ± 3.7e-05 s⁻¹ |
| U31C G38U C70G | 7.51e-05 ± 4.6e-05 s⁻¹ |
| A39U A48U C67G | 3.07e-05 ± 2.9e-05 s⁻¹ |
| G29U A64C C70G | 4e-05 ± 3.3e-05 s⁻¹ |
| U31C U69G | 2.58e-05 ± 2.2e-05 s⁻¹ |
| A52C C67A C71U | 5.13e-05 ± 2.8e-05 s⁻¹ |
| G44U A53C | 2.81e-05 ± 1.4e-05 s⁻¹ |
| A52U U69C C70G | 5.53e-05 ± 3.2e-05 s⁻¹ |
| G37A U69G | 2.53e-05 ± 1.9e-05 s⁻¹ |
| U65C U69G | 3.75e-05 ± 1.9e-05 s⁻¹ |
| G51U U69A C71A | 4.46e-05 ± 2.4e-05 s⁻¹ |
| G60U C61A C71G | 2.69e-05 ± 2.2e-05 s⁻¹ |
| G51U C68A | 3.03e-05 ± 1.6e-05 s⁻¹ |
| C61U U69G | 1.91e-05 ± 1.6e-05 s⁻¹ |
| C16A U57A C67A | 3.21e-05 ± 2.3e-05 s⁻¹ |
| A36C C67G | 0.000321 ± 0.00024 s⁻¹ |
| A36G A64G U69G | 3e-05 ± 2.6e-05 s⁻¹ |
| G29C A36U C50G | 5.79e-05 ± 4.1e-05 s⁻¹ |
| G38C C70A | 1.73e-05 ± 1.6e-05 s⁻¹ |

| Variant | self-cleavage kobs at 640 uM GlcN6P |
| --- | --- |
| U54A A64C | 2.73e-05 ± 2.4e-05 s⁻¹ |
| U49A C68G | 2.67e-05 ± 1.4e-05 s⁻¹ |
| U57C C58A C67G | 2.62e-05 ± 1.9e-05 s⁻¹ |
| C16G C50U A53C C68G | 0.000352 ± 0.00018 s⁻¹ |
| U31G G37U C68A | 3.02e-05 ± 3e-05 s⁻¹ |
| U30G U57A | 2.88e-05 ± 2.3e-05 s⁻¹ |
| A48G U49A C68G | 3.13e-05 ± 2.4e-05 s⁻¹ |
| C58G G60A U69A C71A | 4.5e-05 ± 2.7e-05 s⁻¹ |
| U57A C68U C70U | 6.7e-05 ± 3.5e-05 s⁻¹ |
| U56C C71A | 2.52e-05 ± 1.5e-05 s⁻¹ |
| G59U U65A C67A | 2.51e-05 ± 1.7e-05 s⁻¹ |
| G51U A53G U69G | 3.95e-05 ± 2.2e-05 s⁻¹ |
| G62A C68A | 1.9e-05 ± 1.6e-05 s⁻¹ |
| U30C G51U C68U | 5.27e-05 ± 3.5e-05 s⁻¹ |
| A15U A52U C67G | 4.6e-05 ± 2.3e-05 s⁻¹ |
| C34U C50G C68A | 2.21e-05 ± 1.6e-05 s⁻¹ |
| U30C G37U A39G C68G | 5.17e-05 ± 2.6e-05 s⁻¹ |
| G32U U57C C70U | 3.59e-05 ± 2.5e-05 s⁻¹ |
| G37C C50U U69G | 5.09e-05 ± 2.6e-05 s⁻¹ |
| G51A U54A G59A C68G | 3.85e-05 ± 2.7e-05 s⁻¹ |
| U31C G40U U47A | 2.65e-05 ± 1.8e-05 s⁻¹ |

| Variant | self-cleavage kobs at 640 uM GlcN6P |
| --- | --- |
| G29U C67A C68A | 3e-05 ± 1.8e-05 s⁻¹ |
| U46G C58G U69G | 0.000191 ± 0.00011 s⁻¹ |
| U49A U55C | 0.00412 ± 0.0039 s⁻¹ |
| G29U U31A U69G C70A | 9.23e-05 ± 5.6e-05 s⁻¹ |
| U30G A39U G44C | 2.77e-05 ± 2.8e-05 s⁻¹ |
| G38U C61A C67U | 0.000133 ± 8.9e-05 s⁻¹ |
| U54A G59C C68A C70A | 2.51e-05 ± 2.2e-05 s⁻¹ |
| G41C U55G | 2.34e-05 ± 1.9e-05 s⁻¹ |
| G40U U55C | 1.96e-05 ± 1.1e-05 s⁻¹ |
| C50U C61U C68A | 2.66e-05 ± 1.9e-05 s⁻¹ |
| U57C C67G | 1.75e-05 ± 1.3e-05 s⁻¹ |
| A36U A64G C68G | 4.2e-05 ± 3.1e-05 s⁻¹ |
| U56A C58G C67U | 3.08e-05 ± 1.7e-05 s⁻¹ |
| C50G C58U | 2.92e-05 ± 1.6e-05 s⁻¹ |
| U54G A64C C67G C68U U69C | 8.13e-05 ± 4.4e-05 s⁻¹ |
| G40U G41A C67A C70U | 2.14e-05 ± 1.3e-05 s⁻¹ |
| G29C G59U C68U | 3.43e-05 ± 2.6e-05 s⁻¹ |
| A36U C58G C70A | 4.83e-05 ± 2.4e-05 s⁻¹ |
| G26U A48G | 2.84e-05 ± 2.7e-05 s⁻¹ |

Variants of: B1
Test: self-cleavage kobs at 2500 uM GlcN6P; higher = faster cleavage; RNA array
Conditions: with glucosamine-6-phosphate
Summary of the method: as §1

| Variant | self-cleavage kobs at 2500 uM GlcN6P |
| --- | --- |
| U56G A64U C70U | 1.54e-05 ± 1.2e-05 s⁻¹ |
| G37A U69G | 2.09e-05 ± 1.3e-05 s⁻¹ |
| C61U U69G | 1.93e-05 ± 1.4e-05 s⁻¹ |
| C16A U57A C67A | 2.86e-05 ± 2.6e-05 s⁻¹ |
| G38C C70A | 1.77e-05 ± 1.7e-05 s⁻¹ |
| U49A C68G | 2.47e-05 ± 1.9e-05 s⁻¹ |
| G13A C34G C50U C67G | 6.42e-05 ± 4.2e-05 s⁻¹ |
| G51A U54A G59A C68G | 2.73e-05 ± 2e-05 s⁻¹ |
| U46G C58G U69G | 3.89e-05 ± 2.9e-05 s⁻¹ |
| U30G A39U G44C | 2.4e-05 ± 1.9e-05 s⁻¹ |
| U54G A64C C67G C68U U69C | 5.62e-05 ± 3.3e-05 s⁻¹ |
| G29C G59U C68U | 4.8e-05 ± 3.2e-05 s⁻¹ |
